Measured values: publication PMC4525203

Sequences of proteins named here, by UniProt entry; tags and fusion partners are left off. A change or cut given only in a name is not applied to a line headed by its entry.
UniProt Q9R210: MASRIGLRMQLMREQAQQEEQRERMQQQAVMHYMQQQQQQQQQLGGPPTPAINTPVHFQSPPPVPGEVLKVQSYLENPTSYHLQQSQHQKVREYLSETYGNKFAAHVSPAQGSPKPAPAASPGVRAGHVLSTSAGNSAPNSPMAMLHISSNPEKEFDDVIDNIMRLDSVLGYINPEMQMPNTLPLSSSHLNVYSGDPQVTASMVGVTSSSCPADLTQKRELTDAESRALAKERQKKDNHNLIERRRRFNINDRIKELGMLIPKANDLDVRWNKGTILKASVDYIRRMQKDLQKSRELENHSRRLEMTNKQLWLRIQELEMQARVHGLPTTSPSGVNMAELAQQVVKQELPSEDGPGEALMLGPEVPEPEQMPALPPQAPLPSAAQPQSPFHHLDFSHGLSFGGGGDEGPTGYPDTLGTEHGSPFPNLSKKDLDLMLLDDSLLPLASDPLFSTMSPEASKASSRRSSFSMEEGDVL
UniProt Q62296: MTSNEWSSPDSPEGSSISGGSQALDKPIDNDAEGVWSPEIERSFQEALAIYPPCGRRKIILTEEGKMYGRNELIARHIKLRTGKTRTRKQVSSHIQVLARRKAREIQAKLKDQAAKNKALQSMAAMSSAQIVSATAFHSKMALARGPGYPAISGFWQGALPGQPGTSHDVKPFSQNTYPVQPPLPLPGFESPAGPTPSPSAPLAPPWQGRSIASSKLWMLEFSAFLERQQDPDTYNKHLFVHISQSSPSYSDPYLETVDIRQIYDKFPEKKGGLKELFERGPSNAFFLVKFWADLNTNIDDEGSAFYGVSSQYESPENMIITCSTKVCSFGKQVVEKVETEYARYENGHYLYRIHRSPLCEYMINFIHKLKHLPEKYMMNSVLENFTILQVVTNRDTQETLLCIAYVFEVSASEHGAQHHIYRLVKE
UniProt Q8K114: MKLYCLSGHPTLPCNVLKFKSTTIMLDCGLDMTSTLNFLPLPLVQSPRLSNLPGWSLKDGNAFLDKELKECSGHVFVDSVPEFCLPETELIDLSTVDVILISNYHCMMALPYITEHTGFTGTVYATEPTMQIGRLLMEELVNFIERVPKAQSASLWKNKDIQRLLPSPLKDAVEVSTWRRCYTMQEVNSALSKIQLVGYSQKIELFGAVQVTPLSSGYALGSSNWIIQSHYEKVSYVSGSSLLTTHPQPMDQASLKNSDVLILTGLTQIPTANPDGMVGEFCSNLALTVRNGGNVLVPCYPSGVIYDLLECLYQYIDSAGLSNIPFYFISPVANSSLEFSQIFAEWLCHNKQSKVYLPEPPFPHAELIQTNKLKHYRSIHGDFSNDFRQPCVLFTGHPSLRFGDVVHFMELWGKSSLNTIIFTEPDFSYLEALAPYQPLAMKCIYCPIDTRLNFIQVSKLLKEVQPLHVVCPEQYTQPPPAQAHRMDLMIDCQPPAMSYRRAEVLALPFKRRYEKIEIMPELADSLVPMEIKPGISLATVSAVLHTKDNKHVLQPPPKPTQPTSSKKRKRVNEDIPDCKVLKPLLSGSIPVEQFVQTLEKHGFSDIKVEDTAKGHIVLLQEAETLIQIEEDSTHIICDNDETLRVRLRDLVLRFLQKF
UniProt Q8CHI8: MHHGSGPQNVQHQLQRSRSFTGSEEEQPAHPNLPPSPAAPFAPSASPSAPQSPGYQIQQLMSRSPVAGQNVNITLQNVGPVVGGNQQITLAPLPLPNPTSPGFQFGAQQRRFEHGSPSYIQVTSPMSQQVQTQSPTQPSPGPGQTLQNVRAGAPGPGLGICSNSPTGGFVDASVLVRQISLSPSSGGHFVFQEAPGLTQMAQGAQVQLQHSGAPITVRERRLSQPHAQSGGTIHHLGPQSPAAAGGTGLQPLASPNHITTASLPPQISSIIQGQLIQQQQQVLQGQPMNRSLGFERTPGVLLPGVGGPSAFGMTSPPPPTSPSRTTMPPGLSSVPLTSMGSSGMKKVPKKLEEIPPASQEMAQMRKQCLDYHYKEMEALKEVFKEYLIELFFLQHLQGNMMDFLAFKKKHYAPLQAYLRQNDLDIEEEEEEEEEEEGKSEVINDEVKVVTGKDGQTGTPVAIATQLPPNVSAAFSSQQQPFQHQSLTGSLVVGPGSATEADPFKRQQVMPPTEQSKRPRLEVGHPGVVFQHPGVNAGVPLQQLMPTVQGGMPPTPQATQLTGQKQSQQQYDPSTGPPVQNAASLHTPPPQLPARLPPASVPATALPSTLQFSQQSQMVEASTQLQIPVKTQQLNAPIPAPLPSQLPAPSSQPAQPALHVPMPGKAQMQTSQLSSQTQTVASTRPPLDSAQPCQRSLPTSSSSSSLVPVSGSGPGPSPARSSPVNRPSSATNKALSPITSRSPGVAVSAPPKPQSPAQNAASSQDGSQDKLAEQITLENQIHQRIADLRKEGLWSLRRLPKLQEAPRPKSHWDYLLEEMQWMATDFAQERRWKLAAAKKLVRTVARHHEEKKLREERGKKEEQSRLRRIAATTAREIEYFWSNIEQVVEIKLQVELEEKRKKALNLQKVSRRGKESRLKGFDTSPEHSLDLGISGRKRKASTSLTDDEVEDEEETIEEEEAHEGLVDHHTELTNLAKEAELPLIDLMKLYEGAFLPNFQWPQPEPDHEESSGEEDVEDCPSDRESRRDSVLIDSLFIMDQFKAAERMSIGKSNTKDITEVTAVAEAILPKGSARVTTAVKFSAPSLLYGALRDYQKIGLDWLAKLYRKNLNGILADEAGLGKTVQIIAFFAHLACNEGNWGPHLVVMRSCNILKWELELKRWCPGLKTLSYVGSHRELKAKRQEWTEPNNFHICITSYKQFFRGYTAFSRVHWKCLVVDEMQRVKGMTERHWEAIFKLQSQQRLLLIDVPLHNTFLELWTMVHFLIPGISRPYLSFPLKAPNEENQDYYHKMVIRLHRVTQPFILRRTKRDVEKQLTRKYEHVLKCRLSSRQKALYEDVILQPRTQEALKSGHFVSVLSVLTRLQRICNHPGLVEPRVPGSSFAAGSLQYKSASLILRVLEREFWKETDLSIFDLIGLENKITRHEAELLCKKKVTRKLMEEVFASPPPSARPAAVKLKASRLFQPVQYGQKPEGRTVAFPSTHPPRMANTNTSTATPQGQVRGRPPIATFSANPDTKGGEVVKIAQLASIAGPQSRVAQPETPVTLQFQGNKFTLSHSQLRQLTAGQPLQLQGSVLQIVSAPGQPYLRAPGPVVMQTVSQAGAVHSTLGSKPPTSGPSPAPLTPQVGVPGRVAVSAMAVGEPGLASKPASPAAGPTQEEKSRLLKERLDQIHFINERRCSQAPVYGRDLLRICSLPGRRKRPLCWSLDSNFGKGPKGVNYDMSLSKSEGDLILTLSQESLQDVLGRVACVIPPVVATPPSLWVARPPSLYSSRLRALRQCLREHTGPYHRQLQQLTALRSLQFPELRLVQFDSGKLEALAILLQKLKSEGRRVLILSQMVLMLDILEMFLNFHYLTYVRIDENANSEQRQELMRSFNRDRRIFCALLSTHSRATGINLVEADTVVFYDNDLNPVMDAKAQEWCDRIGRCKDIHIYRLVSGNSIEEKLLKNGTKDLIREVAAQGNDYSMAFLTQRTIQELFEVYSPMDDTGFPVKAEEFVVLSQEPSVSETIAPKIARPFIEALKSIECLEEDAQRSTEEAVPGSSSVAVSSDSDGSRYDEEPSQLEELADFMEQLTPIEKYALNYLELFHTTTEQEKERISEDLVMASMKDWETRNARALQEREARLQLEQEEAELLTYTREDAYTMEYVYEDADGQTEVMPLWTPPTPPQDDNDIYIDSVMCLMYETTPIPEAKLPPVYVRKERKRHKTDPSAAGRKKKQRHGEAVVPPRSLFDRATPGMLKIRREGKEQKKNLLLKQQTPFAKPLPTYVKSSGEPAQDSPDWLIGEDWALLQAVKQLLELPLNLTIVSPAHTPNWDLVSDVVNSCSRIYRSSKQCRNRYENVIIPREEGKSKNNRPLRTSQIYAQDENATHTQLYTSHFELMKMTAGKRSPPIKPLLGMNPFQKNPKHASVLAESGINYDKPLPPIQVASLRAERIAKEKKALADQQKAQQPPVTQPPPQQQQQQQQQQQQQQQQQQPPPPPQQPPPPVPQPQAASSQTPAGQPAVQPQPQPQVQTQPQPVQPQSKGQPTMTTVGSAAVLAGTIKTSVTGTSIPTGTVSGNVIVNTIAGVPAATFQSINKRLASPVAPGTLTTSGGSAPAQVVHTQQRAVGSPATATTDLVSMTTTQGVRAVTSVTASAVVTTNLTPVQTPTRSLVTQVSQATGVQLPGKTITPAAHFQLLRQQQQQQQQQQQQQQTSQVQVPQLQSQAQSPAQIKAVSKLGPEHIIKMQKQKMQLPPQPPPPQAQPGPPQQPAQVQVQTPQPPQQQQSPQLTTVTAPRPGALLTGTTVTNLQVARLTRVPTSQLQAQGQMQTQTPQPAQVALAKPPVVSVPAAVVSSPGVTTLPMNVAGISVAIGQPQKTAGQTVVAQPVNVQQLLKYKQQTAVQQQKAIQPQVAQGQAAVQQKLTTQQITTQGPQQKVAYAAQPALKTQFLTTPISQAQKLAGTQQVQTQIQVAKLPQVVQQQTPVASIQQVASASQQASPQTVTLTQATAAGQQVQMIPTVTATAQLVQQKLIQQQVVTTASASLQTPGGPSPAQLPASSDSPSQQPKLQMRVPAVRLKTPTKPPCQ
UniProt Q03347: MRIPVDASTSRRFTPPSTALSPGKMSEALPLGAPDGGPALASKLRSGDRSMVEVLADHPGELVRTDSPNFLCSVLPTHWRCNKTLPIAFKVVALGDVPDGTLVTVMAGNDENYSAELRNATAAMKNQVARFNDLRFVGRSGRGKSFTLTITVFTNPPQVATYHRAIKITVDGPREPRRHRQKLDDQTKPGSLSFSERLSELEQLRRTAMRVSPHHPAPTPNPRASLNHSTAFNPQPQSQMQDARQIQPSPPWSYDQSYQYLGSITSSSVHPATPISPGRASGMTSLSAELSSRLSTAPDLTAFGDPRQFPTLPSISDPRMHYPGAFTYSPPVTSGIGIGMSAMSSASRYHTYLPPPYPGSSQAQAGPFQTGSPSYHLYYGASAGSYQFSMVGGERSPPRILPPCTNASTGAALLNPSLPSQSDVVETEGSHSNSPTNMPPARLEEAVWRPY
UniProt Q9EP97: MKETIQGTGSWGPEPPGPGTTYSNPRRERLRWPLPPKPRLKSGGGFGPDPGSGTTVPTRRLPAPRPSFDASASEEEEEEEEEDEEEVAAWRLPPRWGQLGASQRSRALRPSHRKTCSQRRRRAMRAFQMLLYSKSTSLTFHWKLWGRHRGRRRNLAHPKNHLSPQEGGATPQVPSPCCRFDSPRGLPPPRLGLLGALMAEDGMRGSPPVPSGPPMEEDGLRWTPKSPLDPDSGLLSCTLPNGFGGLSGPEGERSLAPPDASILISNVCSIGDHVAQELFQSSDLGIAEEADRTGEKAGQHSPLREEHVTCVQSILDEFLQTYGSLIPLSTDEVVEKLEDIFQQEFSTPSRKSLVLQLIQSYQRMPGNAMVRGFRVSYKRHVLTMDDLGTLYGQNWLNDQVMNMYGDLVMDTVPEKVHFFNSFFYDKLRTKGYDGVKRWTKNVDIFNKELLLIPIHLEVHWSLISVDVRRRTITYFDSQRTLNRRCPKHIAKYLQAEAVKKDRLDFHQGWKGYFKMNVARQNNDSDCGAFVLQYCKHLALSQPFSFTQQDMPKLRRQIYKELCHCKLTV
UniProt Q9JI44: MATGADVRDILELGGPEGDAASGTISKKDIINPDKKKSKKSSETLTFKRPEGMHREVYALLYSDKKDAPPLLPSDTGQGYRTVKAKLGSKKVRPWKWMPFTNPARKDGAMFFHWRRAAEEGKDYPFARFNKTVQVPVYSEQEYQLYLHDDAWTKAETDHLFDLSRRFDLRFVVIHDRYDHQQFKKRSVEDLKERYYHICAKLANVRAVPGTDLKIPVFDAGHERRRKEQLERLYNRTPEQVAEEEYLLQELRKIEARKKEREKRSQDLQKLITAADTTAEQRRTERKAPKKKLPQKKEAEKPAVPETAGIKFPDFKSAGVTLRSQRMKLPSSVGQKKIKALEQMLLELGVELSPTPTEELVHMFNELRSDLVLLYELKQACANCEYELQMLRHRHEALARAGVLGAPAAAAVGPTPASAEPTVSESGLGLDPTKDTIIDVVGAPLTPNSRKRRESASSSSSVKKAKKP

Tests used:
[1] = target: T1, C-terminally 3xFlag-tagged Esrrb (oestrogen-related receptor beta) (mouse) (UniProt Q61539); assay: affinity purification with mass spectrometry; anti-FLAG M2 agarose IP of Esrrb-3xFlag from TS cell nuclear extract dialysed to buffer D (20 mM Hepes pH 7.6, 20% glycerol, 100 mM KCl, 1.5 mM MgCl2, 0.2 mM EDTA), 3 h at 4 °C with Benzonase, elution with FLAG-tripeptide, LC-MS/MS; two biological replicates against vector control
T1 sequence: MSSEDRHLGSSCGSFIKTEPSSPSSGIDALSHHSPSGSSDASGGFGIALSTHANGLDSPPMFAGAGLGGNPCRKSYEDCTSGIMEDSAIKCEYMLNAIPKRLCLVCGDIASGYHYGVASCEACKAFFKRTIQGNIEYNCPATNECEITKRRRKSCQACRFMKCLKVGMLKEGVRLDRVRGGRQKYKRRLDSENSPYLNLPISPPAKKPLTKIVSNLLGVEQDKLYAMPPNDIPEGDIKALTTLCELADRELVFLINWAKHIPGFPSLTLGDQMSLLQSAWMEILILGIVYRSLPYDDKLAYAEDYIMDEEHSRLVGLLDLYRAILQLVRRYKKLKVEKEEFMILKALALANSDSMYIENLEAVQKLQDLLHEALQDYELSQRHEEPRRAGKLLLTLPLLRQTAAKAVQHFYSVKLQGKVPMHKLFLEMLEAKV

Cdx2 (mouse) = target: T2, Cdx2 (mouse) (UniProt P43241); assay: co-IP + affinity purification with mass spectrometry; Cdx2 co-immunoprecipitation from TS cells followed by either western blot or mass spectrometry
T2 sequence: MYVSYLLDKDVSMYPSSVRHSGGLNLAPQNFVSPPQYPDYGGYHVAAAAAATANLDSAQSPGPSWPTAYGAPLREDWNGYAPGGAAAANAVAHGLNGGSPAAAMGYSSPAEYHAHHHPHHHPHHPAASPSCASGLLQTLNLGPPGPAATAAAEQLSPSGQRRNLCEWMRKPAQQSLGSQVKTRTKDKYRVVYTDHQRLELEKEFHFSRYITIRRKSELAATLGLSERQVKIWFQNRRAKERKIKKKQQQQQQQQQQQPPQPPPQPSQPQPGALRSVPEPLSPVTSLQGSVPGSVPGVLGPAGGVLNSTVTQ

| Substance | binding [1] | binding (Cdx2 (mouse)) |
| --- | --- | --- |
| C-terminal-binding protein 1 (from UniProt O88712 1-441) | binds |  |
| Zinc-finger protein 462 (from UniProt B1AWL2 1-2495) | binds |  |
| Transcription factor EB (from UniProt Q9R210 1-475) | binds |  |
| Histone-lysine N-methyltransferase EHMT2 (from UniProt Q9Z148 1-1263) | binds |  |
| Tead4 (from UniProt Q62296 1-427) |  | binds |
| Integrator complex subunit 9 (from UniProt Q8K114 1-658) | binds |  |
| E1A-binding protein p400 (from UniProt Q8CHI8 1-3072) | binds |  |
| MAX gene-associated protein (from UniProt A2AWL7 1-3003) | binds |  |
| Runt-related transcription factor 1 (from UniProt Q03347 1-451) | binds |  |
| Sentrin-specific protease 3 (from UniProt Q9EP97 1-568) | binds |  |
| Integrator complex subunit 7 (from UniProt Q7TQK1 1-966) | binds |  |
| Integrator complex subunit 6 (from UniProt Q6PCM2 1-883) | binds |  |
| Host cell factor 1 (mouse (endogenous in TS cells)) | binds |  |
| Integrator complex subunit 10 (from UniProt Q8K2A7 1-710) | binds |  |
| Set1/Ash2 histone methyltransferase complex subunit ASH2 (from UniProt Q91X20 1-623) | binds |  |
| Ras-responsive element-binding protein 1 (from UniProt Q3UH06 1-1700) | binds |  |
| Protein Prdm2 (from UniProt A2A7B5 1-1709) | binds |  |
| DNA methyltransferase 1-associated protein 1 (from UniProt Q9JI44 1-468) | binds |  |

No constants are given. Whether binding was seen depends on the method and setting. Binding seen in cells or lysates may run through a third protein. Here binding means that the protein was enriched with, or labelled near, the bait; the list need not be complete. For part of these data: Sequences can lack the tags named with a protein.
